Experimental data as given in patent US11013690B2, “Esterification/saponification-based method for liposomal encapsulation of hydrophilic glucuronides” (priority 2016, dated 2021).

Assay: Liposome loading, glucuronide-mE versus glucuronide form
Format: physicochemical
Settings: pH gradient liposomes, 75° C., 1 hour; label is the parental drug

## Cc1cc(=O)oc2cc(O)ccc12 [4MU, 4-methylumbelliferone]
  improvement of liposome loading under glucuronide-mE form compared to glucuronide form: 55 folds

## CC[C@@]1(O)C(=O)OCc2c1cc1n(c2=O)Cc2cc3c(N)cccc3nc2-1 [9AC, 9-aminocamptothecin, reference compound]
  improvement of liposome loading under glucuronide-mE form compared to glucuronide form: over 275 folds
